# Laboratory results: ChEMBL document CHEMBL1687827, “Profiling the Aspergillus fumigatus proteome in response to caspofungin” (2011)
# The source gives many values for each of these; only a part stands here.
# Key:
# Format in all cases: functional
# [1] = test system: Aspergillus fumigatus; test: Induction of change in glucosamine-fructose-6-phosphate aminotransferase protein level in iTRAQ-118 labelled cell wall fraction of drug-susceptible Aspergillus fumigatus KU80 delta-akuB at 0.12 ug/ml after 24 hrs in YPD medium by MS (MS/MS) analysis relative to control
# [2] = test system: Aspergillus fumigatus; test: Induction of change in heat shock protein Hsp98/Hsp104/ClpA, putative protein level in iTRAQ121 labelled cell wall fraction of drug-susceptible Aspergillus fumigatus KU80 delta-akuB at 0.12 ug/ml after 48 hrs in YPD medium by MS (MS/MS) analysis relative to control
# [3] = test system: Aspergillus fumigatus; test: Induction of change in secreted dipeptidyl peptidase DppV protein level in iTRAQ121 labelled cell wall fraction of drug-susceptible Aspergillus fumigatus KU80 delta-akuB at 0.12 ug/ml after 48 hrs in YPD medium by MS (MS/MS) analysis relative to control
# [4] = test system: Aspergillus fumigatus; test: Induction of change in mitochondrial hypoxia responsive domain protein level in iTRAQ-116 labelled secreted fraction of drug-susceptible Aspergillus fumigatus KU80 delta-akuB at 0.12 ug/ml after 48 hrs in YPD medium by MS (MS/MS) analysis relative to control
# [5] = test system: Aspergillus fumigatus; test: Induction of change in Ran-specific GTPase-activating protein 1, putative protein level in iTRAQ-116 labelled secreted fraction of drug-susceptible Aspergillus fumigatus KU80 delta-akuB at 0.12 ug/ml after 48 hrs in YPD medium by MS (MS/MS) analysis relative to control
# [6] = test system: Aspergillus fumigatus; test: Induction of change in plasma membrane H -ATPase gene expression in drug-susceptible Aspergillus fumigatus KU80 delta-akuB at 0.12 ug/ml after 48 hrs in YPD medium by microarray analysis relative to control
# [7] = test system: Aspergillus fumigatus; test: Induction of change in mycelial catalase Cat1 protein level in iTRAQ114 labelled secreted fraction of drug-susceptible Aspergillus fumigatus KU80 delta-akuB at 0.12 ug/ml after 24 hrs in YPD medium by MS (MS/MS) analysis relative to control
# [8] = test system: Aspergillus fumigatus; test: Induction of change in large subunit ribosomal protein L3 protein level in iTRAQ114 labelled secreted fraction of drug-susceptible Aspergillus fumigatus KU80 delta-akuB at 0.12 ug/ml after 24 hrs in YPD medium by MS (MS/MS) analysis relative to control
# [9] = test system: Aspergillus fumigatus; test: Induction of change in ribosomal protein L27a protein level in iTRAQ114 labelled secreted fraction of drug-susceptible Aspergillus fumigatus KU80 delta-akuB at 0.12 ug/ml after 24 hrs in YPD medium by MS (MS/MS) analysis relative to control
# [10] = test system: Aspergillus fumigatus; test: Induction of change in Hsp90 binding co-chaperone (Sba1), putative protein level in iTRAQ-116 labelled secreted fraction of drug-susceptible Aspergillus fumigatus KU80 delta-akuB at 0.12 ug/ml after 48 hrs in YPD medium by MS (MS/MS) analysis relative to control
# [11] = test system: Aspergillus fumigatus; test: Induction of change in 1,3-beta-glucanosyltransferase Gel1 protein level in iTRAQ-116 labelled secreted fraction of drug-susceptible Aspergillus fumigatus KU80 delta-akuB at 0.12 ug/ml after 48 hrs in YPD medium by MS (MS/MS) analysis relative to control
# [12] = test system: Aspergillus fumigatus; test: Induction of change in transaldolase protein level in iTRAQ-116 labelled secreted fraction of drug-susceptible Aspergillus fumigatus KU80 delta-akuB at 0.12 ug/ml after 48 hrs in YPD medium by MS (MS/MS) analysis relative to control
# [13] = test system: Aspergillus fumigatus; test: Induction of change in hypothetical gene locus AFUA_6G00740 expression in drug-susceptible Aspergillus fumigatus KU80 delta-akuB at 0.12 ug/ml after 24 hrs in YPD medium by microarray analysis relative to control
# [14] = test system: Aspergillus fumigatus; test: Induction of change in hypothetical gene expression in drug-susceptible Aspergillus fumigatus KU80 delta-akuB at 0.12 ug/ml after 24 hrs in YPD medium by microarray analysis relative to control
# [15] = test system: Aspergillus fumigatus; test: Induction of change in cytosolic small ribosomal subunit S4, putative protein level in iTRAQ114 labelled cell wall fraction of drug-susceptible Aspergillus fumigatus KU80 delta-akuB at 0.12 ug/ml after 24 hrs in YPD medium by MS (MS/MS) analysis relative to control
# [16] = test system: Aspergillus fumigatus; test: Induction of change in Ribosomal L15 protein level in iTRAQ114 labelled cell wall fraction of drug-susceptible Aspergillus fumigatus KU80 delta-akuB at 0.12 ug/ml after 24 hrs in YPD medium by MS (MS/MS) analysis relative to control
# [17] = test system: Aspergillus fumigatus; test: Induction of change in 60s ribosomal protein l21 protein level in iTRAQ114 labelled cell wall fraction of drug-susceptible Aspergillus fumigatus KU80 delta-akuB at 0.12 ug/ml after 24 hrs in YPD medium by MS (MS/MS) analysis relative to control
# [18] = test system: Aspergillus fumigatus; test: Induction of change in hypothetical gene locus AFUA_8G00970 expression in drug-susceptible Aspergillus fumigatus KU80 delta-akuB at 0.12 ug/ml after 48 hrs in YPD medium by microarray analysis relative to control
# [19] = test system: Aspergillus fumigatus; test: Induction of change in CFEM domain protein, putative gene expression in drug-susceptible Aspergillus fumigatus KU80 delta-akuB at 0.12 ug/ml after 48 hrs in YPD medium by microarray analysis relative to control
# [20] = test system: Aspergillus fumigatus; test: Induction of change in Mn superoxide dismutase MnSOD gene expression in drug-susceptible Aspergillus fumigatus KU80 delta-akuB at 0.12 ug/ml after 24 hrs in YPD medium by microarray analysis relative to control
# [21] = test system: Aspergillus fumigatus; test: Induction of change in cytochrome c oxidase subunit Va, putative protein level in iTRAQ-118 labelled cell wall fraction of drug-resistant Aspergillus fumigatus EMFR-S678P at 0.12 ug/ml after 24 hrs in YPD medium by MS (MS/MS) analysis relative to control
# [22] = test system: Aspergillus fumigatus; test: Induction of change in hypothetical protein locus AFUA_3G14940 level in iTRAQ-116 labelled secreted fraction of drug-resistant Aspergillus fumigatus EMFR-S678P at 0.12 ug/ml after 48 hrs in YPD medium by MS (MS/MS) analysis relative to control
# [23] = test system: Aspergillus fumigatus; test: Induction of change in hypothetical protein locus AFUA_5G14680 level in iTRAQ-116 labelled secreted fraction of drug-resistant Aspergillus fumigatus EMFR-S678P at 0.12 ug/ml after 48 hrs in YPD medium by MS (MS/MS) analysis relative to control
# [24] = test system: Aspergillus fumigatus; test: Induction of change in choline oxidase (CodA), putative protein level in iTRAQ-116 labelled secreted fraction of drug-resistant Aspergillus fumigatus EMFR-S678P at 0.12 ug/ml after 48 hrs in YPD medium by MS (MS/MS) analysis relative to control
# [25] = test system: Aspergillus fumigatus; test: Induction of change in antigenic mitochondrial protein HSP60, putative protein level in iTRAQ114 labelled secreted fraction of drug-susceptible Aspergillus fumigatus KU80 delta-akuB at 0.12 ug/ml after 24 hrs in YPD medium by MS (MS/MS) analysis relative to control
smiles,measurement,setting,value
CC[C@H](C)C[C@H](C)CCCCCCCCC(=O)N[C@H]1C[C@@H](O)[C@@H](NCCN)NC(=O)[C@@H]2[C@@H](O)CCN2C(=O)[C@H]([C@H](O)CCN)NC(=O)[C@H]([C@H](O)[C@@H](O)c2ccc(O)cc2)NC(=O)[C@@H]2C[C@@H](O)CN2C(=O)[C@H]([C@@H](C)O)NC1=O [CASPOFUNGIN],fold change (FC),[1],2.5
same,fold change (FC),[2],-2.6
same,fold change (FC),[3],-2.1
same,fold change (FC),[4],>-16
same,fold change (FC),[5],-3.7
same,fold change (FC),[6],-2.5
same,fold change (FC),[7],1.2
same,fold change (FC),[8],1.2
same,fold change (FC),[9],1.2
same,fold change (FC),[10],-2.1
same,fold change (FC),[11],2.8
same,fold change (FC),[12],3.2
same,fold change (FC),[13],-9
same,fold change (FC),[14],-5.3
same,fold change (FC),[15],1.7
same,fold change (FC),[16],1.7
same,fold change (FC),[17],1.6
same,fold change (FC),[18],-2.6
same,fold change (FC),[19],-2.1
same,fold change (FC),[20],-9.2
same,fold change (FC),[21],-1.07
same,fold change (FC),[22],-1.32
same,fold change (FC),[23],-1.07
same,fold change (FC),[24],1.23
same,fold change (FC),[25],2.6
